Measured values from publication doi:10.1101/330266.
These are yes or no findings as the source states them, for the method shown.

T1: R2R3-WT peptide fragment (human)
T1 chain: DNIKHVPGGGSVQIVYK


Columns and labels:
[1] = target: 295DNIKHV300 peptide (upstream N-terminal sequence) (human); test: thioflavin T
[2] = target: T1, R2R3-WT peptide fragment (human); test: thioflavin T; conditions: remark: other sources report otherwise

| binding [1] | binding [2] | Binder |
| --- | --- | --- |
| no binding |  | DNIKHV (N-terminal acetylation; C-terminal amidation) [295DNIKHV300 peptide (upstream N-terminal sequence)] |
|  | no binding (tested: 200 µM) | DNIKHVPGGGSVQIVYK (here or on the partner: N-terminal acetylation; C-terminal amidation; N-terminal acetylation; C-terminal amidation) [R2R3-WT peptide fragment] |
